We go through 2 molecules from article PMC4982761.

Sequences of proteins named here, by UniProt entry; tags and fusion partners are left off.
UniProt P42582: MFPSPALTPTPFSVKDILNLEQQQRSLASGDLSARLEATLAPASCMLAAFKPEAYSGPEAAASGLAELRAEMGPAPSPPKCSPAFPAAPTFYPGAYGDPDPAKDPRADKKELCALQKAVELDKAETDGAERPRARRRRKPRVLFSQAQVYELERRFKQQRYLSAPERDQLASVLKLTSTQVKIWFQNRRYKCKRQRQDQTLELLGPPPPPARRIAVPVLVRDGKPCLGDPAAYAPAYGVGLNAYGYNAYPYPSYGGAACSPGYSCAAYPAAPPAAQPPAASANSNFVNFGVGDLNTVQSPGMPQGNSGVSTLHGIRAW

These are yes or no findings as the source states them, for the method shown. In cells and extracts the contact can be indirect. Some binding calls cover weakened binding; strength is not graded here.

The target of experiment [1] is Nkx2-5 (mouse (endogenous in E12.5 hearts)), P42582. In words: co-IP; endogenous proteins immunoprecipitated with the indicated antibodies from nuclear extracts of E12.5 mouse hearts, Western blotting; in Figure 3D extracts exposed to 20 µg/ml EtBr or 50 µg/ml RNaseA. To be noted: remark: other sources report otherwise. A general note: A western blot detects proteins with antibodies after separation by electrophoresis.

Experiment [2] concerns the target Nkx2-5 (mouse (endogenous in E12.5 hearts)) (UniProt P42582). The description is as above.

B1: Tbx5, P70326 1-518 (protein)
chain: MADTDEGFGLARTPLEPDSKDRSCDSKPESALGAPSKSPSSPQAAFTQQGMEGIKVFLHERELWLKFHEVGTEMIITKAGRRMFPSYKVKVTGLNPKTKYILLMDIVPADDHRYKFADNKWSVTGKAEPAMPGRLYVHPDSPATGAHWMRQLVSFQKLKLTNNHLDPFGHIILNSMHKYQPRLHIVKADENNGFGSKNTAFCTHVFPETAFIAVTSYQNHKITQLKIENNPFAKGFRGSDDLELHRMSRMQSKEYPVVPRSTVRHKVTSNHSPFSSETRALSTSSNLGSQYQCENGVSGPSQDLLPPPNPYPLAQEHSQIYHCTKRKDEECSSTEHPYKKPYMETSPSEEDTFYRSGYPQQQGLSTSYRTESAQRQACMYASSAPPSEPVPSLEDISCNTWPSMPSYSSCTVTTVQPMDRLPYQHFSAHFTSGPLVPRLAGMANHGSPQLGEGMFQHQTSVAHQPVVRQCGPQTGLQSPGGLQPPEFLYTHGVPRTLSPHQYHSVHGVGMVPEWSENS
In the case of B1, in experiment [1], the binding entry is “no binding”.

B2: Xrn2 (enzyme, UniProt Q9DBR1 1-951)
chain: MGVPAFFRWLSRKYPSIIVNCVEEKPKECNGVKIPVDASKPNPNDVEFDNLYLDMNGIIHPCTHPEDKPAPKNEDEMMVAIFEYIDRLFNIVRPRRLLYMAIDGVAPRAKMNQQRSRRFRASKEGMEAAVEKQRVREEILAKGGFLPPEEIKERFDSNCITPGTEFMDNLAKCLRYYIADRLNNDPGWKNLTVILSDASAPGEGEHKIMDYIRRQRAQPNHDPNTHHCLCGADADLIMLGLATHEPNFTIIREEFKPNKPKPCALCNQFGHEVKDCEGLPREKKGKHDELADSLPCAEGEFIFLRLNVLREYLERELTMASLPFPFDVERSIDDWVFMCFFVGNDFLPHLPSLEIREGAIDRLVNIYKNVVHKTGGYLTESGYVNLQRVQMIMLAVGEVEDSIFKKRKDDEDSFRRRQKEKRKRMKRDQPAFTPSGILTPHALGSRNSPGCQVASNPRQAAYEMRMQRNSSPSISPNTSFASDGSPSPLGGIKRKAEDSDSEPEPEDNVRLWEAGWKQRYYKNKFDVDAADEKFRRKVVQSYVEGLCWVLRYYYQGCASWKWYYPFHYAPFASDFEGIADMSSEFEKGTKPFKPLEQLMGVFPAASGNFLPPTWRKLMSDPDSSIIDFYPEDFAIDLNGKKYAWQGVALLPFVDERRLRAALEEVYPDLTPEENRRNSLGGDVLFVGKLHPLRDFILELYQTGSTEPVDVPPELCHGIQGTFSLDEEAILPDQTVCSPVPMLRDLTQNTAVSINFKDPQFAEDYVFKAAMLPGARKPATVLKPGDWEKSSNGRQWKPQLGFNRDRRPVHLDQAAFRTLGHVTPRGSGTSVYTNTALPPANYQGNNYRPLLRGQAQIPKLMSNMRPQDSWRGPPPLFQQHRFERSVGAEPLLPWNRMIQNQNAAFQPNQYQMLGGPGGYPPRRDDHRGGRQGYPREGRKYPLPPPSGRYSWN
With B2, the binding entry in experiment [2] is on record as “binds”.
